Record: PubChem BioAssay AID504744 (Drosophila RNAi Screening Center, 2011)
The screen tested about 23,000 reagents; this is an unselected part of those with a known target gene and a result. In the full data, 98 (0.43%) are marked active. 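Only hit calls are given; the phospho-dAkt signals, z-scores and hit direction were not deposited.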 A plus sign joins genes that one reagent is predicted to hit.

- Aim: 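Uncover factors, including feedback loops, that control dAkt activation in fly cells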 (primary screen)
- Cells: Drosophila Kc167 cells
- Reagents: long dsRNA against Drosophila genes, 250 ng dsRNA per well of a 384-well plate
- Timing: 3 days of knock-down, then overnight serum-free starvation before stimulation
- Treatment: bovine insulin at 387 nM for 10 minutes after 12 h without serum
- Measured: 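Per-well phospho-dAkt level from an in-cell fluorescent antibody stain, divided by a DNA-dye signal; log2 residuals turned into z-scores that take cell number into account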
- Call rule: 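Hit in the insulin screen when the two-replicate mean z-score is more extreme than plus or minus 2.5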

What did the screen give for CkIIalpha [DRSC11946]?
call: inactive

With RpS17 [DRSC11271], what was measured?
call: inactive

With CRIF [DRSC11811], what does the deposit list?
call: inactive

For Vajk2 [DRSC02540], what does the deposit list?
call: inactive

Which result is listed for CG16957 [DRSC02545]?
call: inactive

How did the screen score CG14326 [DRSC14805]?
call: inactive

For LManIV [DRSC03222], what does the deposit list?
call: inactive

With CG40341 (retired record) [DRSC01767], what does the deposit list?
call: inactive

For CG40341 (retired record) [DRSC03750], what does the deposit list?
call: inactive

With CG33109 [DRSC16533], what was measured?
call: inactive

With CG32536 + CG32537 [DRSC20074], how do the results read?
call: inactive

What did the screen give for CG16995 [DRSC00480]?
call: inactive

Which result is listed for CG13077 [DRSC02181]?
call: inactive

Which result is listed for CG3061 [DRSC15460]?
call: inactive

How did the screen score yata [DRSC15408]?
call: inactive

With CG18508 [DRSC18155], what does the deposit list?
call: inactive

Which result is listed for Stip1 [DRSC00756]?
call: inactive

For alphaTub84B [DRSC12622], what does the deposit list?
call: inactive

What did the screen give for Myo61F [DRSC22144]?
call: inactive

How did the screen score CG15425 [DRSC00440]?
call: inactive

With CG6972 [DRSC16159], what does the deposit list?
call: inactive

What did the screen give for CG4887 [DRSC00670]?
call: inactive

How did the screen score CG4887 [DRSC21563]?
call: inactive

With Klp31E [DRSC03354], what was measured?
call: inactive

What is on record for Pdf [DRSC16786]?
call: inactive

How did the screen score Ugt301D1 [DRSC02021]?
call: inactive

For CG31128 [DRSC13675], how do the results read?
call: inactive

With CG1927 [DRSC08146], how do the results read?
call: inactive

How did the screen score Seipin [DRSC18654]?
call: inactive

For CG14618 [DRSC20631], what was measured?
call: inactive

For Nop56 [DRSC14699], what does the deposit list?
call: inactive

How did the screen score CG11581 [DRSC19407]?
call: inactive

With CG11192 [DRSC06057], how do the results read?
call: inactive

Which result is listed for yellow-c + CIAPIN1 [DRSC01898]?
call: inactive

What is on record for Ir7d [DRSC18010]?
call: inactive

With CG14034 [DRSC02359], what was measured?
call: inactive

How did the screen score CG14340 [DRSC00370]?
call: inactive

With CG15312 [DRSC18000], what does the deposit list?
call: inactive

With Syx6 [DRSC07032], how do the results read?
call: inactive

What is on record for Exd2 [DRSC16105]?
call: inactive

With CG7409 [DRSC10842], what was measured?
call: inactive

For CG15308 [DRSC17995], what does the deposit list?
call: inactive

What did the screen give for CG31365 [DRSC15610]?
call: inactive

For Lime [DRSC06752], what was measured?
call: inactive

With KCNQ [DRSC06121], what was measured?
call: inactive

How did the screen score KCNQ [DRSC06230]?
call: inactive

What is on record for CG12375 [DRSC02163]?
call: inactive

How did the screen score Khc [DRSC07448]?
call: inactive

For CG14095 [DRSC10098], what was measured?
call: inactive

For Polr3E [DRSC11880], what does the deposit list?
call: inactive

With Mal-A8 [DRSC07234], how do the results read?
call: inactive

Which result is listed for CG13908 (retired record) [DRSC08378]?
call: inactive

For CG44325 [DRSC18423], what does the deposit list?
call: inactive

With Sec13 [DRSC14144], how do the results read?
call: active

How did the screen score beat-IIb [DRSC13219]?
call: inactive

How did the screen score beat-IIb [DRSC14816]?
call: inactive

With beat-IIb [DRSC15546], how do the results read?
call: inactive

A few values from the entries so far:
Value for beat-IIb [DRSC14816] in “call”: inactive
Under “call”, CG13908 (retired record) [DRSC08378] reads inactive
Under “call”, Ir7d [DRSC18010] has inactive
Under “call”, beat-IIb [DRSC15546] reads inactive
Value for Seipin [DRSC18654] in “call”: inactive
Result of CG32536 + CG32537 [DRSC20074] in “call”: inactive
